Data: PubChem BioAssay AID212 (DTP/NCI, 2004)
The list is a part of this screen's results and no random one: it gathers tests that were run many times, whatever their T/C, doses with no T/C, and many T/C values between a quarter and a half above the control. Other doses and runs of a compound stand elsewhere. T/C gives the treated animals as a percentage of the vehicle group. Schedule codes are those of the source, taken here to give the interval after Q, in days (D) or hours (H), and the number of doses after X. Some T/C values carry the count of animals alive at the toxicity check (mostly the fifth day); where none is given, no animal had died by that day. Some entries give survivors of the animals treated and no T/C: the source files T/C as zero there, which appears to mark a toxic dose or a test without result, not a measured value. Survivors were counted at the toxicity check, usually on the fifth day, unless a day is given; later deaths do not show. Some entries hold several experiments; the values are given in rising order. For survival time, this PubChem deposit counts one and a half times the control or more as active, and values a quarter to a half above the control carry no call in these data; other NCI protocols may use other cut-offs.

System: BDF1 mice, colon carcinoma 38 sc, T/C %
Test: NCI In Vivo Anticancer Drug Screen. Data for tumor model Colon Carcinoma 38 (subcutaneous) in B6D2F1 (BDF1) mice
Outline: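 T/C readout: treated group (T) measurement over vehicle control group (C) measurement. Endpoint is survival or tumor size in mice bearing a transplanted tumor.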

[1] = T/C endpoint: median tumor weight (est.), dose: 200.0 mg/kg/injection, schedule: Q07DX002 (ip), vehicle: water, higher T/C = larger tumour
[2] = T/C endpoint: median tumor weight (est.), dose: 400.0 mg/kg/injection, schedule: Q07DX002 (ip), vehicle: saline with Tween-80, higher T/C = larger tumour

## Cc1c2cc[n+](CCN3CCCCC3)cc2c(C)c2c1[nH]c1ccc(O)cc12
T/C endpoint: median tumor weight (est.), dose: 100.0 mg/kg/injection, schedule: Q07DX002 (ip), vehicle: suspension in saline, higher T/C = larger tumour
  survivor count: 1 of 10 on day 20

## CC[C@H]1CN2CCc3cc(OC)c(OC)cc3[C@@H]2C[C@@H]1C[C@H]1NCCc2cc(OC)c(OC)cc21
T/C endpoint: median tumor weight (est.), dose: 56.0 mg/kg/injection, schedule: Q07DX002 (ip), vehicle: saline, higher T/C = larger tumour
  survivor count: 2 of 10 on day 20

## O=C(O)c1c2c(nc3ccccc13)Cc1ccccc1-2
T/C endpoint: median tumor weight (est.), dose: 100.0 mg/kg/injection, schedule: Q07DX002 (ip), vehicle: water, higher T/C = larger tumour
  survivor count: 4 of 10 on day 20
[1]
  survivor count: 0 of 10 on day 20
T/C endpoint: median tumor weight (est.), dose: 400.0 mg/kg/injection, schedule: Q07DX002 (ip), vehicle: water, higher T/C = larger tumour
  survivor count: 0 of 10 on day 20 and 1 of 10 on day 20

## C=C1C(=O)O[C@H]2/C=C(/C)C3=CC(=O)[C@@](C)(C[C@@H](OC(=O)/C(C)=C\C)C12)O3 (some centres not stated)
T/C endpoint: median tumor weight (est.), dose: 50.0 mg/kg/injection, schedule: Q07DX002 (ip), vehicle: Klucel (hydroxypropylcellulose) (HPC), higher T/C = larger tumour
  survivor count: 2 of 10 on day 20

## CC1CC(C)CC(C)C(O)/C(C#N)=C/C=C/CC(C2CCCC2C(=O)O)OC(=O)CC(O)C(C)C1 (configuration not stated)
T/C endpoint: median tumor weight (est.), dose: 2.0 mg/kg/injection, schedule: Q07DX002 (ip), vehicle: Klucel (hydroxypropylcellulose) (HPC), evaluated on day 20, higher T/C = larger tumour
  T/C: 125 % of control [9 of 10 alive on day 20]

## Cc1ccccc1N(CC1CO1)CC1CO1 (configuration not stated)
T/C endpoint: median tumor weight (est.), dose: 25.0 mg/kg/injection, schedule: Q07DX002 (ip), vehicle: saline, evaluated on day 20, higher T/C = larger tumour
  T/C: 130 % of control [9 of 10 alive on day 20]
T/C endpoint: median tumor weight (est.), dose: 50.0 mg/kg/injection, schedule: Q07DX002 (ip), vehicle: saline, evaluated on day 20, higher T/C = larger tumour
  T/C: 133 % of control [8 of 10 alive on day 20]
T/C endpoint: median tumor weight (est.), dose: 100.0 mg/kg/injection, schedule: Q07DX002 (ip), vehicle: saline, evaluated on day 20, higher T/C = larger tumour
  T/C: 130 % of control
[2]
  survivor count: 4 of 10 on day 20
T/C endpoint: median tumor weight (est.), dose: 400.0 mg/kg/injection, schedule: Q07DX002 (ip), vehicle: saline, evaluated on day 20, higher T/C = larger tumour
  T/C: 126 % of control
T/C endpoint: median tumor weight (est.), dose: 800.0 mg/kg/injection, schedule: Q07DX002 (ip), vehicle: saline with Tween-80, higher T/C = larger tumour
  survivor count: 0 of 10 on day 20

## COc1cccc2c1C(=O)c1c(O)c3c(c(O)c1C2=O)C[C@@](O)(C(O)CO)C[C@@H]3OC1CC(N(Cc2ccccc2)Cc2ccccc2)C(O)C(C)O1 (some centres not stated)
[1]
  survivor count: 0 of 10 on day 20

## CC(=O)N(C)C
T/C endpoint: median tumor weight (est.), dose: 225.0 mg/kg/injection, schedule: Q07DX002 (ip), vehicle: saline, evaluated on day 20, higher T/C = larger tumour
  T/C: 133 % of control
T/C endpoint: median tumor weight (est.), dose: 7200.0 mg/kg/injection, schedule: Q07DX002 (ip), vehicle: saline, higher T/C = larger tumour
  survivor count: 0 of 10 on day 20

## CCN1/C(=C/C=C/C=C/c2sc3ccccc3[n+]2CC)Sc2ccccc21
T/C endpoint: median tumor weight (est.), dose: 0.25 mg/kg/injection, schedule: Q07DX002 (ip), vehicle: saline, evaluated on day 20, higher T/C = larger tumour
  T/C: 145 % of control
T/C endpoint: median tumor weight (est.), dose: 1.0 mg/kg/injection, schedule: Q07DX002 (ip), vehicle: suspension in saline, higher T/C = larger tumour
  survivor count: 4 of 10 on day 20

## CCCCCCCCCCCCCCCCCC(=O)OCC(=O)OCC(=O)[C@]1(O)Cc2c(O)c3c(c(O)c2[C@@H](OC2CC(N)C(O)C(C)O2)C1)C(=O)c1c(OC)cccc1C3=O (some centres not stated)
T/C endpoint: median survival time, dose: 18.6 mg/kg/injection, schedule: Q07DX002 (iv), vehicle: saline, higher T/C = longer survival
  T/C: 128 % of control
T/C endpoint: median survival time, dose: 30.0 mg/kg/injection, schedule: Q07DX002 (iv), vehicle: saline, higher T/C = longer survival
  T/C: 132 % of control [9 of 10 alive on day 44]
T/C endpoint: median survival time, dose: 48.0 mg/kg/injection, schedule: Q07DX002 (iv), vehicle: saline, higher T/C = longer survival
  survivor count: 6 of 10 on day 44
T/C endpoint: median survival time, dose: 78.0 mg/kg/injection, schedule: Q07DX002 (iv), vehicle: saline, higher T/C = longer survival
  survivor count: 4 of 10 on day 44
T/C endpoint: median tumor weight (est.), dose: 27.0 mg/kg/injection, schedule: Q07DX002 (ip), vehicle: saline with Tween-80, higher T/C = larger tumour
  survivor count: 1 of 10 on day 20
T/C endpoint: median tumor weight (est.), dose: 54.0 mg/kg/injection, schedule: Q07DX002 (ip), vehicle: saline with Tween-80, higher T/C = larger tumour
  survivor count: 0 of 10 on day 20 and 5 of 10 on day 20

## CC1=C(/C=C/C(C)=C/C=C/C(C)=C/C=O)C(C)(C)CCC1
T/C endpoint: median tumor weight (est.), dose: 50.0 mg/kg/injection, schedule: Q07DX002 (ip), vehicle: saline with Tween-80, evaluated on day 20, higher T/C = larger tumour
  T/C: 125 % of control [9 of 10 alive on day 20]
T/C endpoint: median tumor weight (est.), dose: 200.0 mg/kg/injection, schedule: Q07DX002 (ip), vehicle: saline with Tween-80, higher T/C = larger tumour
  survivor count: 2 of 10 on day 20
[2]
  survivor count: 1 of 10 on day 20
